These results are taken from the supplement of paper PMC10338343.

± gives the standard deviation. The entries are a selection whose mix differs from that of the whole data set. The uncertainty is large for many entries. Some of the results follow.

Assay [1] has as its system MILI (PIWIL2) piRISC loaded with L1MC piRNA (26 nt). Put plainly: pre-steady-state target cleavage rate (min^-1); higher = faster piRNA-guided slicing of the target. To be noted: guide: L1MC piRNA 5'p-UAACUAAAUACUAUGCAAGCUGUAGG
The method in brief: (§1)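 Reactions were run for 0–8 or 0–960 min at 33 °C in HEPES–potassium acetate buffer, combining 1 nM active affinity-purified piRISC with one synthetic guide, […] transcribed, DNA-blocked target RNA library and, in some cases, 500 nM GTSF1 partner protein. Sequencing of uncleaved targets followed, with normalisation to depth and to weakly complementary targets. Three trials were pooled, k3 was capped at 0.0001 min^-1, and the pre-steady-state cleavage rate was taken from a burst-and-steady-state fit.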

For assay [2], the system named is MIWI (PIWIL1) piRISC loaded with L1MC piRNA (30 nt). The description is as above. To be noted: guide: L1MC piRNA 5'p-UAACUAAAUACUAUGCAAGCUGUAGGUCCU
The method in brief: as §1

The subject of assay [3] is EfPiwi piRISC loaded with L1MC piRNA (26 nt). The assay can be described thus: pre-steady-state target cleavage rate (min^-1); guide: L1MC piRNA 5'p-UAACUAAAUACUAUGCAAGCUGUAGG; MIWI and MILI are mouse PIWI proteins and EfPiwi is from a freshwater sponge; tags in brackets are library labels; higher = faster piRNA-guided slicing of the target. The method in brief:
as §1

Setting [4] is: auxiliary factor: none (no GTSF1).
Where [5] appears, read: auxiliary factor: none (no Gtsf1).
The mark [6] stands for this setting: auxiliary factor: 500 nM mouse GTSF1.
Where [7] appears, read: auxiliary factor: 500 nM Ephydatia muelleri Gtsf1.

With “UCCUGGAUGUCCUUGCAAUCAUAAAUCAAA [g14:g19:cont:t1A]”, the “pre-steady-state target cleavage rate” value in assay [1] (setting [4]) was 0.000218 ± 0.025; in assay [2] (setting [4]), 0.000395 ± 0.014; in assay [3] (setting [5]), under 0.0001.

UCCUGGAUGUCCUUGCAUAGAAUUUUGUUA: the “pre-steady-state target cleavage rate” value in assay [1] (setting [4]) is 0.00132 ± 0.0066; in assay [2] (setting [6]), 0.0014 ± 0.0082; in assay [2] (setting [4]), 0.00108 ± 0.0064; in assay [3] (setting [7]), 0.000177 ± 0.031.

As for UCCUCCUACAGCUUGCGAUAGUAUUUAGUUA, the “pre-steady-state target cleavage rate” value in assay [1] (setting [4]) was 0.000327 ± 0.0086; in assay [2] (setting [4]), 0.00105 ± 0.0058; in assay [3] (setting [7]), 0.00839 ± 0.0023.

As to UCCUGGAACAGCUUGCAUAGUAUAAUGUAA, the entries for the “pre-steady-state target cleavage rate” value in assay [1] (setting [4]), in assay [2] (setting [4]) and in assay [3] (setting [7]) were 0.000743 ± 0.0073, 0.00225 ± 0.0035 and 0.00116 ± 0.0032, respectively.

With UCCUCCUAGUCCUUGCAUAGUAUUUACAAA, the “pre-steady-state target cleavage rate” value was 0.000703 ± 0.0063 in assay [1] (setting [4]), 0.00122 ± 0.0034 in assay [2] (setting [4]) and 0.00284 ± 0.004 in assay [3] (setting [7]).

On to UCCUGGAUGACCUUGCAUAGUAUUUAGAUA, for which the “pre-steady-state target cleavage rate” value in assay [1] (setting [4]) was 0.00192 ± 0.0046; in assay [2] (setting [4]), 0.00347 ± 0.0042; in assay [3] (setting [5]) it was 0.000623 ± 0.015.

As to UCCUGGAUGUCGAUGCAUAGUAAUUUGUUA, the “pre-steady-state target cleavage rate” value in assay [1] (setting [4]) was 0.00103 ± 0.0052; in assay [2] (setting [6]), 0.000541 ± 0.019; in assay [2] (setting [4]), 0.000859 ± 0.0077; in assay [3] (setting [7]), 0.000528 ± 0.013.

UCCUGGUACAGCUUGCAUACGUAUUUAGUUA: the “pre-steady-state target cleavage rate” value in assay [1] (setting [4]) is 0.00282 ± 0.0056; in assay [2] (setting [6]), 0.00124 ± 0.012; in assay [2] (setting [4]) it was 0.00024 ± 0.018; in assay [3] (setting [7]), 0.00136 ± 0.0058.

For UCCUGGAUCAGCUUGCAUACAUUUUACAAA, the “pre-steady-state target cleavage rate” value in assay [1] (setting [4]) turned out to be 0.000384 ± 0.011; in assay [2] (setting [6]), 0.000861 ± 0.013; in assay [2] (setting [4]) it was 0.000328 ± 0.01; in assay [3] (setting [7]), 0.00141 ± 0.0083.

In the case of UCCUGGAUCAGCUUGCAUUGUAUUUUCAAA, the “pre-steady-state target cleavage rate” value in assay [1] (setting [4]) worked out at 0.000788 ± 0.0057; in assay [2] (setting [4]), 0.00115 ± 0.0039; in assay [3] (setting [7]), 0.00169 ± 0.0032.

Take UCCUGGUACAGCUUCCAUAGAAUUUAGUUA: the “pre-steady-state target cleavage rate” value in assay [1] (setting [4]) came out at 0.00124 ± 0.0068; in assay [2] (setting [4]), 0.00167 ± 0.0037; in assay [3] (setting [7]) it was 0.00206 ± 0.0024.

As to UCCUGGAUGAGCUUCGAUAGUAUUUAGUAA, the “pre-steady-state target cleavage rate” value in assay [1] (setting [4]) stood at 0.000737 ± 0.0084; in assay [2] (setting [6]), 0.00125 ± 0.0082; in assay [2] (setting [4]), 0.000874 ± 0.0065; in assay [3] (setting [7]), 0.000978 ± 0.0078.

Consider UCCUGGAUGUCCUUGCAUAGUAUUAAGAUA, for which the “pre-steady-state target cleavage rate” value amounted to 0.000859 ± 0.0065 in assay [1] (setting [4]), 0.000919 ± 0.0075 in assay [2] (setting [4]) and 0.00174 ± 0.0048 in assay [3] (setting [7]).

Turning to UCCUCCCACAGCUUGCAUAGUAUUUAGUUA, the “pre-steady-state target cleavage rate” value in assay [1] (setting [6]) turned out to be 0.296 ± 0.015; in assay [2] (setting [6]), 1.15 ± 0.04; in assay [2] (setting [4]), 0.0641 ± 0.012; in assay [3] (setting [7]), 0.128 ± 0.029.

Regarding UCCUGGAACACCUUCCAUAGUAUUUAGUUA, the “pre-steady-state target cleavage rate” value in assay [1] (setting [4]) was found to be 0.00141 ± 0.0051; in assay [2] (setting [4]) it was 0.000765 ± 0.0083; in assay [3] (setting [7]), 0.00291 ± 0.0032.

Turning to UCCUGGAACAGCUUGCAUAGAAUUUUCAAA, the “pre-steady-state target cleavage rate” value in assay [1] (setting [4]) came to 0.000835 ± 0.0061; in assay [2] (setting [4]), 0.00179 ± 0.0045; in assay [3] (setting [7]), 0.00175 ± 0.003.

On to UCCUGGAUGUCCUUGCAUUCUAUUUAGUAA, for which the results for the “pre-steady-state target cleavage rate” value in assay [1] (setting [4]), in assay [2] (setting [4]) and in assay [3] (setting [7]) were 0.000967 ± 0.0069, 0.000843 ± 0.0068 and 0.000755 ± 0.007, respectively.

As to UCCUGGAUGUCGUAGCAUAGUAAUUAGUUA, the “pre-steady-state target cleavage rate” value amounted to 0.00186 ± 0.0035 in assay [1] (setting [4]), 0.000855 ± 0.0088 in assay [2] (setting [4]) and 0.000331 ± 0.012 in assay [3] (setting [7]).

Take UCCUGGAUGAGGUUGCAUAGAAUUUAGUUA: the results for the “pre-steady-state target cleavage rate” value in assay [1] (setting [4]), in assay [2] (setting [4]) and in assay [3] (setting [7]) were 0.00198 ± 0.0032, 0.00253 ± 0.0036 and 0.00108 ± 0.0059, respectively.

For the sequence UCCUCCUACAGCUUGGAUAGUAUUUACAAA, the “pre-steady-state target cleavage rate” value in assay [1] (setting [4]) amounted to 0.00113 ± 0.0042; in assay [2] (setting [4]), 0.00166 ± 0.0031; in assay [3] (setting [7]), 0.00267 ± 0.0022.
